Test results taken from PubChem BioAssay AID2551 (National Center for Advancing Translational Sciences (NCATS), 2010).
The campaign covered roughly 310,000 compounds. About 17,000 (5.5%) were called active. The inconclusive results got no clear call from the source; some entries with a clear call stand among them for comparison. Calls come from the whole dose curve; as a rule, active = well fitted inhibition curve with a large enough effect; inconclusive = small, poorly fitted or top-dose-only effect, or effect the other way; inactive = no such curve, though single readings can be large or run the other way. Where the call is inconclusive, the potency comes from a doubtful curve fit.

Chains of the proteins cited; added tags and fusions are not shown. Lines headed by an entry give the natural chain unless they say otherwise; changes in a name come on top.
UniProt P51450: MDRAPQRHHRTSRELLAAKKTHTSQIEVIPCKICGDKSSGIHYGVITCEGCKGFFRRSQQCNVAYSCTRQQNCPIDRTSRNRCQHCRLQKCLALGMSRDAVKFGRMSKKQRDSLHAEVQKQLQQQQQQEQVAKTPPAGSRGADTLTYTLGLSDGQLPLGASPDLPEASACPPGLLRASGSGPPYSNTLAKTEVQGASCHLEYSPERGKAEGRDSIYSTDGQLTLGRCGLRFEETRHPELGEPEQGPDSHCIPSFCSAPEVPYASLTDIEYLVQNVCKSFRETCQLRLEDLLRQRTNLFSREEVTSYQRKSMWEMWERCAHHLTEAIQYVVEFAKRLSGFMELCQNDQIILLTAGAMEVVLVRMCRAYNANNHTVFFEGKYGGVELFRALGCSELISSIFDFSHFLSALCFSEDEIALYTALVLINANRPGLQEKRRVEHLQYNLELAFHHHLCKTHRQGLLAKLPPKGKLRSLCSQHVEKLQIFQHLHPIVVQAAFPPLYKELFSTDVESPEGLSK

These molecules were tested against Nuclear receptor ROR-gamma (Mus musculus) (UniProt P51450) (assay: qHTS for inhibitors of ROR gamma transcriptional activity). Settings: Drosophila S2 Gal4-RORgamma UAS-luciferase reporter, 20 h; activity change, negative = inhibition: at 53.6 µM (top of the series).
In short: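 Schneider cells (Drosophila), stable Gal4 DBD–ROR gamma + UAS-luc; 1 hr cmpd preincubation; Cu2+ induction 700 uM final; 20 hr ambient; luminescence.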
% is set by controls: 0 for no effect and ±100 for the full control effect; potency is the fitted concentration of half-maximal effect.
Note: nearly all actives have a fitted effect of over 60% in size.

Row | SMILES | Potency | activity change, negative = inhibition
1 | O=C1C=C(Nc2ccccc2)c2ccccc2C1=O | inconclusive: 7.94 µM [inhibitor, partial curve, poor fit] | 
2 | COc1cc(CCC(=O)N2CCN(c3ccccc3)CC2)cc(OC)c1OC |  | inactive: -10.5%
3 | CC(=O)Nc1ccc(S(=O)(=O)N(Cc2ccco2)Cc2cc3ccccc3[nH]c2=O)cc1 | inconclusive: 0.224 µM [activator, full curve] | 
4 | Cc1ccc2ccc3ccc(C)nc3c2n1 | active: 0.251 µM | 
5 | c1cn(C23CC4CC(CC(C4)C2)C3)cn1 | inconclusive: 17.8 µM [inhibitor, single point] | 
6 | C=CCNC(=S)Nc1ccc(C)c(S(=O)(=O)N2CCCCC2)c1 | active: 11.2 µM | 
7 | O=C(C1CCN(c2ncnc3c2nc2n3CCCCC2)CC1)N1CCN(c2ccccc2F)CC1 | inconclusive: 15.8 µM [activator, single point] | 
8 | Cc1ccc(CN(Cc2ccco2)C(=S)NCC(=O)NCc2cccnc2)cc1 |  | inactive: -0.34%
9 | CC(C)(C)OC(=O)N/N=C\C=C\c1ccc2c(c1)OCO2 | inconclusive: 0.251 µM [activator, full curve] | 
10 | N#C/C(=N\Nc1cccc(F)c1)C(=N)N1CCCCCC1 | inconclusive: 0.0355 µM [activator, full curve, poor fit] | 
11 | Cc1cccc(N=Cc2cc(Br)cc(Cl)c2O)c1 | inconclusive: 12.6 µM [inhibitor, single point] | 
12 | COc1ccccc1-c1nnc(NC(=O)c2ccc(S(=O)(=O)N(C)C)cc2)o1 | active: 0.708 µM | 
13 | Cc1ccnc(NC(=S)NC(=O)c2cncc(Br)c2)c1 | inconclusive: 5.62 µM [inhibitor, single point] | 
14 | CCn1c(-c2cc(-c3cc(C)ccc3C)nc3ccccc23)n[nH]c1=S | inconclusive: 20 µM [inhibitor, partial curve, poor fit] | 
15 | Cc1ccc(C)c(-c2nnc(NC(=O)Cc3ccc(F)cc3)o2)c1 | active: 0.631 µM | 
16 | C[n+]1cc(-c2ccccc2)n2c1CCCCC2 |  | inactive: 26.3%
17 | Nc1ccc2nc(CCCO)[nH]c2c1 |  | inactive: -0.0572%
18 | CCOC(=O)c1sc(NC(=O)/C=C/c2ccc(F)cc2)nc1C |  | inactive: 11.7%
19 | CC(C)CNC(=O)C(=O)NCc1ccccn1 | inconclusive: 4.47 µM [activator, full curve] | 
20 | N#Cc1cccc(-c2nc3cnc(N4CCNCC4)nc3n(C3CC3)c2=O)c1 | active: 12.6 µM | 
21 | COc1ccc(C(=O)O/N=C(\N)c2ccccn2)c(OC)c1 | inconclusive: 12.6 µM [inhibitor, partial curve, poor fit] | 
22 | Cc1ccc(C(=O)NC(=S)N2CCN(C(=O)OC(C)(C)C)CC2)cc1Br | active: 0.631 µM | 
23 | COc1ccccc1Nc1nc(N)nc(CN2CCC(Cc3ccccc3)CC2)n1 | active: 8.91 µM | 
24 | CO/N=C/c1c(-c2ccc(Cl)cc2)nc2cc(C)ccn12 | active: 8.91 µM | 
25 | Nc1ccc(-c2ccc3ccccc3n2)cc1 |  | inactive: -19.6%

Row | SMILES | Potency | activity change, negative = inhibition
26 | CS(=O)(=O)c1ccc(S(=O)CC(=O)Oc2ccc(Cl)cc2)c([N+](=O)[O-])c1 (stereo not given) | active: 3.98 µM | 
27 | CC1CCN(S(=O)(=O)c2ccc(NC(=O)c3cccs3)cc2)CC1 | inconclusive: 20 µM [activator, single point] | 
28 | Clc1cccc(CSc2ccc(-c3cccnc3)nn2)c1 |  | inactive: 7.22%
29 | CCOc1cccc(-c2c(C(=O)N/N=C/c3cccnc3)nnn2-c2nonc2N)c1 | inconclusive: 22.4 µM [activator, single point] | 
30 | O=C(COC(=O)CCC(=O)c1ccc(Cl)cc1)NCc1ccco1 | inconclusive: 35.5 µM [inhibitor, single point] | 
31 | CCc1ccc2oc(=O)cc(CN3CCN(c4ccc(F)cc4)CC3)c2c1 |  | inactive: -2.57%
32 | O=C(N/N=C/C=C/c1ccccc1[N+](=O)[O-])c1cc(-c2cccnc2)nc2ccccc12 | active: 7.08 µM | 
33 | CC(=O)C1(C)N(O)C(C)(C)C(c2cccs2)=[N+]1[O-] (stereo not given) | active: 4.47 µM | 
34 | O=C(CSc1nc2sc3c(c2c(=O)[nH]1)CCCC3)NCCO | inconclusive: 28.2 µM [activator, single point] | 
35 | O=C(NCC1CCCO1)c1nn2c(c1Cl)NC(c1ccc(F)cc1)CC2C(F)(F)F (stereo not given) |  | inactive: 20.7%
36 | COC(=O)C1C(=O)C2=C(CC1C)NC(=O)CC2c1ccc(F)cc1 (stereo not given) | inconclusive: 22.4 µM [inhibitor, single point] | 
37 | CCOc1ccccc1-c1nc(-c2ccc(NC(=O)Cc3ccc(OC)cc3)cc2)no1 | inconclusive: 35.5 µM [inhibitor, single point] | 
38 | COc1ccc(S(=O)(=O)Nc2ccccn2)cc1OC | inconclusive: 20 µM [inhibitor, single point] | 
39 | COc1ccc(/C=C/C(=O)ONC2=NCCCCC2)cc1OC | active: 11.2 µM | 
40 | O=C(NCc1ccc2c(c1)OCO2)c1cccc(C(=O)NCc2ccc3c(c2)OCO3)c1 | inconclusive: 31.6 µM [activator, single point] | 
41 | O=C1/C(=C/c2ccc(F)cc2)SC(=S)N1CC(=O)N1CCCCC1c1cccnc1 (stereo not given) |  | inactive: 1.93%
42 | COc1cc(C(CC(=O)O)n2cnnn2)ccc1OC(C)C (stereo not given) | inconclusive: 31.6 µM [inhibitor, single point] | 
43 | OCCCNc1nc(-c2ccc(Cl)cc2)nnc1-c1ccc(Br)cc1 | inconclusive: 12.6 µM [activator, partial curve] | 
44 | Cc1cc(-c2nnc(SCC(=O)c3ccc(F)cc3)o2)no1 | inconclusive: 20 µM [inhibitor, single point] | 
45 | CC(C)(C)c1ccc(C(=O)NCCOc2ccccc2F)cc1 | active: 7.08 µM | 
46 | N#C/C(=C(/O)COC(=O)Cc1c[nH]c2ccccc12)c1nc2ccccc2[nH]1 | active: 10 µM | 
47 | O=C(CSc1nc(Nc2ccccc2)nc(N2CCOCC2)n1)Nc1ccccc1Cl |  | inactive: -30.2%
48 | Cc1ccc(C(=O)NCCCNC(=O)Cc2ccccc2)cn1 |  | inactive: -0.0732%
49 | COc1ccccc1NC(=O)/C(C#N)=C/c1ccncc1 | inconclusive: 31.6 µM [inhibitor, single point] | 
50 | CC(=O)N(c1ccccc1)c1nc(/C=C/C(=O)O)cs1 | inconclusive: 25.1 µM [inhibitor, single point] | 
